Data as given in publication PMC6107513.

Protein sequences, listed by entry. Tags and fused reporters are not part of them. Lines headed by an entry give the natural chain unless they say otherwise; changes in a name come on top.
UniProt Q99496: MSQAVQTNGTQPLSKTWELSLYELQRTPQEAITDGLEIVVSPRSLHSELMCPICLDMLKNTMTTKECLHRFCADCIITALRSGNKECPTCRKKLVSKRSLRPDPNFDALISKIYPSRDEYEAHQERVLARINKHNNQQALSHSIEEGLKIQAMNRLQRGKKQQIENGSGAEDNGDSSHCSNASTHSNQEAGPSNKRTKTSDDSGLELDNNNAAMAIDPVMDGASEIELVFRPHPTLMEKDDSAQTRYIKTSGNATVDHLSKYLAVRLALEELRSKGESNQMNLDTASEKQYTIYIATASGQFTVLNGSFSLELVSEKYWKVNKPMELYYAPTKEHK

B1: PCGF2 (protein, UniProt P35227 1-344)
chain: MHRTTRIKITELNPHLMCALCGGYFIDATTIVECLHSFCKTCIVRYLETNKYCPMCDVQVHKTRPLLSIRSDKTLQDIVYKLVPGLFKDEMKRRRDFYAAYPLTEVPNGSNEDRGEVLEQEKGALSDDEIVSLSIEFYEGARDRDEKKGPLENGDGDKEKTGVRFLRCPAAMTVMHLAKFLRNKMDVPSKYKVEVLYEDEPLKEYYTLMDIAYIYPWRRNGPLPLKYRVQPACKRLTLATVPTPSEGTNTSGASECESVSDKAPSPATLPATSSSLPSPATPSHGSPSSHGPPATHPTSPTPPSTASGATTAANGGSLNCLQTPSSTSRGRKMTVNGAPVPPLT
B2: PHC3 (protein, UniProt Q8NDX5 1-983)
chain: MDTEPNPGTSSVSTTTSSTTTTTITTSSSRMQQPQISVYSGSDRHAVQVIQQALHRPPSSAAQYLQQMYAAQQQHLMLHTAALQQQHLSSSQLQSLAAVQASLSSGRPSTSPTGSVTQQSSMSQTSINLSTSPTPAQLISRSQASSSTSGSITQQTMLLGSTSPTLTASQAQMYLRAQMLIFTPATTVAAVQSDIPVVSSSSSSSCQSAATQVQNLTLRSQKLGVLSSSQNGPPKSTSQTQSLTICHNKTTVTSSKISQRDPSPESNKKGESPSLESRSTAVTRTSSIHQLIAPASYSPIQPHSLIKHQQIPLHSPPSKVSHHQLILQQQQQQIQPITLQNSTQDPPPSQHCIPLQNHGLPPAPSNAQSQHCSPIQSHPSPLTVSPNQSQSAQQSVVVSPPPPHSPSQSPTIIIHPQALIQPHPLVSSALQPGPNLQQSTANQVQATAQLNLPSHLPLPASPVVHIGPVQQSALVSPGQQIVSPSHQQYSSLQSSPIPIASPPQMSTSPPAQIPPLPLQSMQSLQVQPEILSQGQVLVQNALVSEEELPAAEALVQLPFQTLPPPQTVAVNLQVQPPAPVDPPVVYQVEDVCEEEMPEESDECVRMDRTPPPPTLSPAAITVGRGEDLTSEHPLLEQVELPAVASVSASVIKSPSDPSHVSVPPPPLLLPAATTRSNSTSMHSSIPSIENKPPQAIVKPQILTHVIEGFVIQEGLEPFPVSRSSLLIEQPVKKRPLLDNQVINSVCVQPELQNNTKHADNSSDTEMEDMIAEETLEEMDSELLKCEFCGKMGYANEFLRSKRFCTMSCAKRYNVSCSKKFALSRWNRKPDNQSLGHRGRRPSGPDGAAREHILRQLPITYPSAEEDLASHEDSVPSAMTTRLRRQSERERERELRDVRIRKMPENSDLLPVAQTEPSIWTVDDVWAFIHSLPGCQDIADEFRAQEIDGQALLLLKEDHLMSAMNIKLGPALKICARINSLKES
B3: PHC2 (protein, UniProt Q8IXK0 1-858)
chain: MENELPVPHTSSSACATSSTSGASSSSGCNNSSSGGSGRPTGPQISVYSGIPDRQTVQVIQQALHRQPSTAAQYLQQMYAAQQQHLMLQTAALQQQHLSSAQLQSLAAVQQASLVSNRQGSTSGSNVSAQAPAQSSSINLAASPAAAQLLNRAQSVNSAAASGIAQQAVLLGNTSSPALTASQAQMYLRAQMLIFTPTATVATVQPELGTGSPARPPTPAQVQNLTLRTQQTPAAAASGPTPTQPVLPSLALKPTPGGSQPLPTPAQSRNTAQASPAGAKPGIADSVMEPHKKGDGNSSVPGSMEGRAGLSRTVPAVAAHPLIAPAYAQLQPHQLLPQPSSKHLQPQFVIQQQPQPQQQQPPPQQSRPVLQAEPHPQLASVSPSVALQPSSEAHAMPLGPVTPALPLQCPTANLHKPGGSQQCHPPTPDTGPQNGHPEGVPHTPQRRFQHTSAVILQLQPASPPQQCVPDDWKEVAPGEKSVPETRSGPSPHQQAIVTAMPGGLPVPTSPNIQPSPAHETGQGIVHALTDLSSPGMTSGNGNSASSIAGTAPQNGENKPPQAIVKPQILTHVIEGFVIQEGAEPFPVGRSSLLVGNLKKKYAQGFLPEKLPQQDHTTTTDSEMEEPYLQESKEEGAPLKLKCELCGRVDFAYKFKRSKRFCSMACAKRYNVGCTKRVGLFHSDRSKLQKAGAATHNRRRASKASLPPLTKDTKKQPTGTVPLSVTAALQLTHSQEDSSRCSDNSSYEEPLSPISASSSTSRRRQGQRDLELPDMHMRDLVGMGHHFLPSEPTKWNVEDVYEFIRSLPGCQEIAEEFRAQEIDGQALLLLKEDHLMSAMNIKLGPALKIYARISMLKDS
B4: CBX4 (protein, UniProt O00257 1-560)
chain: MELPAVGEHVFAVESIEKKRIRKGRVEYLVKWRGWSPKYNTWEPEENILDPRLLIAFQNRERQEQLMGYRKRGPKPKPLVVQVPTFARRSNVLTGLQDSSTDNRAKLDLGAQGKGQGHQYELNSKKHHQYQPHSKERAGKPPPPGKSGKYYYQLNSKKHHPYQPDPKMYDLQYQGGHKEAPSPTCPDLGAKSHPPDKWAQGAGAKGYLGAVKPLAGAAGAPGKGSEKGPPNGMMPAPKEAVTGNGIGGKMKIVKNKNKNGRIVIVMSKYMENGMQAVKIKSGEVAEGEARSPSHKKRAADERHPPADRTFKKAAGAEEKKVEAPPKRREEEVSGVSDPQPQDAGSRKLSPTKEAFGEQPLQLTTKPDLLAWDPARNTHPPSHHPHPHPHHHHHHHHHHHHAVGLNLSHVRKRCLSETHGEREPCKKRLTARSISTPTCLGGSPAAERPADLPPAAALPQPEVILLDSDLDEPIDLRCVKTRSEAGEPPSSLQVKPETPASAAVAVAAAAAPTTTAEKPPAEAQDEPAESLSEFKPFFGNIIITDVTANCLTVTFKEYVTV

What follows are binders tested against RING1B (encoded by RNF2) (human (endogenous in T47D and MDA-MB-231)) (UniProt Q99496) (assay: affinity purification with mass spectrometry; endogenous RING1B captured from T47D clarified cell extract (200 ul) on magnetic medium coupled to anti-RING1B antibody; 50 mM Tris pH 8.0, 300 mM NaCl, 0.2% NP-40; 1 h at 4 °C; mouse IgG control; label-free quantitative LC-MS/MS, three biological replicates).

binding | Binder
binds | B1
binds | B2
binds | B3
binds | B4

The binders below were run against RING1B (encoded by RNF2) (human (endogenous in T47D and MDA-MB-231)) (UniProt Q99496) (assay: affinity purification with mass spectrometry; endogenous RING1B captured from MDA-MB-231 clarified cell extract (400 ul) on magnetic medium coupled to anti-RING1B antibody; 50 mM Tris pH 8.0, 300 mM NaCl, 0.2% NP-40; 1 h at 4 °C; mouse IgG control; label-free quantitative LC-MS/MS, three biological replicates).

binding | Binder
binds | B1
binds | B3

These are yes or no findings as the source states them, for the method shown. Binding seen in cells or lysates may run through a third protein. Here binding means that the protein was enriched with, or labelled near, the bait; the list need not be complete.
